# ± gives the standard deviation of the averaged measurements. This is one part of the list. The list holds hits alone, and they repeat only in part.
# Sequences of proteins named here, by UniProt entry; tags and fusion partners are left off.
# NDUFA9, Q16795, UniProt Q16795, whole entry: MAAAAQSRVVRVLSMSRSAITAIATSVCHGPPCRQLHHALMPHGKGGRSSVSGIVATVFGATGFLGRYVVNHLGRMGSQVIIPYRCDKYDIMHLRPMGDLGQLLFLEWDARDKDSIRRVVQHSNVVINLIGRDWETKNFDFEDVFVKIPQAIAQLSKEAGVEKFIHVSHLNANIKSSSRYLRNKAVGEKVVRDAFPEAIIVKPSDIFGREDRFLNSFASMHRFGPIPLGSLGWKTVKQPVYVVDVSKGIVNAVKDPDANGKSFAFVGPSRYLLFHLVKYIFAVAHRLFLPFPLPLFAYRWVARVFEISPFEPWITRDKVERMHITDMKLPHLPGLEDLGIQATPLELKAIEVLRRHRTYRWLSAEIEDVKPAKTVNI
# GNB2, P62879, UniProt P62879, whole entry: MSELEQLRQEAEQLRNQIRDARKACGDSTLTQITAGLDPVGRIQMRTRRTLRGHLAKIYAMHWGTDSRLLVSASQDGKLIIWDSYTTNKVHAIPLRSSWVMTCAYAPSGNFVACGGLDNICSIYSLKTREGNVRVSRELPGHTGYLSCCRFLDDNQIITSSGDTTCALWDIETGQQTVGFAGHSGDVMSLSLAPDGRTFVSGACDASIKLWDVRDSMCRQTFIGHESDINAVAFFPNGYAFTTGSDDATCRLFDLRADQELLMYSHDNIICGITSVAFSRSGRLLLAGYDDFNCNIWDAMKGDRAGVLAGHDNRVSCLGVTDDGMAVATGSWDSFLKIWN
# EIF3K, Q9UBQ5, UniProt Q9UBQ5, whole entry: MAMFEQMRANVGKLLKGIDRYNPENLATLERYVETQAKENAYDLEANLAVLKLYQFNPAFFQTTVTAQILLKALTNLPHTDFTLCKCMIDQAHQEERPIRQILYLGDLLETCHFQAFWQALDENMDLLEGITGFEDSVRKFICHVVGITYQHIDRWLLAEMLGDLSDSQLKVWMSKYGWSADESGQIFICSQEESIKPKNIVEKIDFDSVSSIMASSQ
# Columns and labels:
# Experiment in all cases: PRISMA enrichment of interactor (LFQ) in peptide spot vs all other peptide spots (log2 fold change); higher = stronger / more specific binding of the interactor to the peptide
# C1QBP, Q07021 = molecular target: C1QBP, Q07021
# Description: (§1)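 PRISMA: 15-aa overlapping tiles (offset 8 aa) of 60 microproteins, plus SOS1/GLUT1 control peptides, were spot-synthesized on cellulose membranes in triplicate. Membranes were incubated with benzonase-treated HEK293T lysate, and bound proteins were identified by LC-MS/MS with LFQ. Enrichment is the log2 fold change of each protein in one spot versus all other spots. Only interactors passing the significance cutoff are listed.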
# CCDC88A, Q3V6T2 = molecular target: CCDC88A, Q3V6T2
# Description: as §1
# RPS29, P62273 = molecular target: RPS29, P62273
# Description: as §1
# BSG, P35613 = molecular target: BSG, P35613
# Description: as §1
# FMR1, Q06787 = molecular target: FMR1, Q06787
# Description: as §1
# GET4, Q7L5D6 = molecular target: GET4, Q7L5D6
# Description: as §1
# MRPS34, P82930 = molecular target: MRPS34, P82930
# Description: as §1
# MUC19, Q7Z5P9 = molecular target: MUC19, Q7Z5P9
# Description: as §1
# NDUFA9, Q16795 = molecular target: NDUFA9, Q16795
# Description: as §1
# NECAP2, Q9NVZ3 = molecular target: NECAP2, Q9NVZ3
# Description: as §1
# PTGES3, Q15185 = molecular target: PTGES3, Q15185
# Description: as §1
# SFXN2, Q96NB2 = molecular target: SFXN2, Q96NB2
# Description: as §1
# SHROOM3, Q8TF72 = molecular target: SHROOM3, Q8TF72
# Description: as §1
# SURF2, Q15527 = molecular target: SURF2, Q15527
# Description: as §1
# TOMM6, Q96B49 = molecular target: TOMM6, Q96B49
# Description: as §1
# TUBAL3, A6NHL2 = molecular target: TUBAL3, A6NHL2
# Description: as §1
# ZMAT2, Q96NC0 = molecular target: ZMAT2, Q96NC0
# Description: as §1
# GNB2, P62879 = molecular target: GNB2, P62879
# Description: as §1
# RNPS1, Q15287 = molecular target: RNPS1, Q15287
# Description: as §1
# CALD1, Q05682 = molecular target: CALD1, Q05682
# Description: as §1
# HIST2H2BE, Q16778 = molecular target: HIST2H2BE, Q16778
# Description: as §1
# ODF2, Q5BJF6 = molecular target: ODF2, Q5BJF6
# Description: as §1
# UQCRQ, O14949 = molecular target: UQCRQ, O14949
# Description: as §1
# CCDC77, Q9BR77 = molecular target: CCDC77, Q9BR77
# Description: as §1
# CIAO1, O76071 = molecular target: CIAO1, O76071
# Description: as §1
# NAP1L1, P55209 = molecular target: NAP1L1, P55209
# Description: as §1
# RNF219, Q5W0B1 = molecular target: RNF219, Q5W0B1
# Description: as §1
# C19orf53, Q9UNZ5 = molecular target: C19orf53, Q9UNZ5
# Description: as §1
# DDX49, Q9Y6V7 = molecular target: DDX49, Q9Y6V7
# Description: as §1
# EIF3K, Q9UBQ5 = molecular target: EIF3K, Q9UBQ5
# Description: as §1
# FAM91A1, Q658Y4 = molecular target: FAM91A1, Q658Y4
# Description: as §1
# PDCD11, Q14690 = molecular target: PDCD11, Q14690
# Description: as §1
# RANGAP1, P46060 = molecular target: RANGAP1, P46060
# Description: as §1
# SCP2, P22307 = molecular target: SCP2, P22307
# Description: as §1
# FKBP2, P26885 = molecular target: FKBP2, P26885
# Description: as §1
# MRPL27, Q9P0M9 = molecular target: MRPL27, Q9P0M9
# Description: as §1
# NAF1, Q96HR8 = molecular target: NAF1, Q96HR8
# Description: as §1
binder,measurement,setting,value
MGPRAGRARGGRDEE [PVT1],PRISMA enrichment of interactor (log2),"C1QBP, Q07021",6.96
same,PRISMA enrichment of interactor (log2),"CCDC88A, Q3V6T2",5.87
same,PRISMA enrichment of interactor (log2),"RPS29, P62273",5.24
GIWSSGVDMLPNGAV [LINC01560],PRISMA enrichment of interactor (log2),"BSG, P35613",5
same,PRISMA enrichment of interactor (log2),"FMR1, Q06787",6.39
same,PRISMA enrichment of interactor (log2),"GET4, Q7L5D6",4.16
same,PRISMA enrichment of interactor (log2),"MRPS34, P82930",4.51
same,PRISMA enrichment of interactor (log2),"MUC19, Q7Z5P9",8.32
same,PRISMA enrichment of interactor (log2),"NDUFA9, Q16795",6.34
same,PRISMA enrichment of interactor (log2),"NECAP2, Q9NVZ3",4.22
same,PRISMA enrichment of interactor (log2),"PTGES3, Q15185",6.8
same,PRISMA enrichment of interactor (log2),"SFXN2, Q96NB2",4.3
same,PRISMA enrichment of interactor (log2),"SHROOM3, Q8TF72",9.48
same,PRISMA enrichment of interactor (log2),"SURF2, Q15527",3.76
same,PRISMA enrichment of interactor (log2),"TOMM6, Q96B49",4.35
same,PRISMA enrichment of interactor (log2),"TUBAL3, A6NHL2",4.01
same,PRISMA enrichment of interactor (log2),"ZMAT2, Q96NC0",4.64
LPQRRRHRLRHGQEQ [RNF10],PRISMA enrichment of interactor (log2),"C1QBP, Q07021",6.7
same,PRISMA enrichment of interactor (log2),"GNB2, P62879",5.01
same,PRISMA enrichment of interactor (log2),"RNPS1, Q15287",5.96
RREFRKNQKLEDAEA [MIEF-MP],PRISMA enrichment of interactor (log2),"C1QBP, Q07021",7.99
same,PRISMA enrichment of interactor (log2),"CALD1, Q05682",9.52
same,PRISMA enrichment of interactor (log2),"HIST2H2BE, Q16778",5.55
same,PRISMA enrichment of interactor (log2),"ODF2, Q5BJF6",5.72
same,PRISMA enrichment of interactor (log2),"UQCRQ, O14949",6.45
RAPRRCRAARAAGGS [RAB12],PRISMA enrichment of interactor (log2),"C1QBP, Q07021",6.08
same,PRISMA enrichment of interactor (log2),"CCDC77, Q9BR77",7.53
same,PRISMA enrichment of interactor (log2),"CIAO1, O76071",6.6
same,PRISMA enrichment of interactor (log2),"NAP1L1, P55209",5.19 ± 0.33
same,PRISMA enrichment of interactor (log2),"RNF219, Q5W0B1",4.26
TPEELFHPLGADSQ [GLUT1_WT_1],PRISMA enrichment of interactor (log2),"C19orf53, Q9UNZ5",6.99
same,PRISMA enrichment of interactor (log2),"DDX49, Q9Y6V7",5.75
same,PRISMA enrichment of interactor (log2),"EIF3K, Q9UBQ5",4.29
same,PRISMA enrichment of interactor (log2),"FAM91A1, Q658Y4",4.42
same,PRISMA enrichment of interactor (log2),"MUC19, Q7Z5P9",8.05
same,PRISMA enrichment of interactor (log2),"PDCD11, Q14690",7.44
same,PRISMA enrichment of interactor (log2),"RANGAP1, P46060",4.77
same,PRISMA enrichment of interactor (log2),"SCP2, P22307",5.26
PRRFSTLLLAEDSPL [IFRD1],PRISMA enrichment of interactor (log2),"C19orf53, Q9UNZ5",6.68
same,PRISMA enrichment of interactor (log2),"FKBP2, P26885",4.16
same,PRISMA enrichment of interactor (log2),"MRPL27, Q9P0M9",8.5
same,PRISMA enrichment of interactor (log2),"NAF1, Q96HR8",4.79

# Exported bar-delimited: part of the list above.
binder | measurement | setting | value
GIWSSGVDMLPNGAV [LINC01560] | PRISMA enrichment of interactor (log2) | ZMAT2, Q96NC0 | 4.64
LPQRRRHRLRHGQEQ [RNF10] | PRISMA enrichment of interactor (log2) | C1QBP, Q07021 | 6.7

# From the supplement of paper PMC10032668
